Data published in PubChem BioAssay AID1347426 (Functional Genomics Laboratory (NCATS/FGL), 2020).
The whole screen tested about 31,000 sequences, of which about 1,400 (4.5%) were called active.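 How the source made its calls: active means median seed-adjusted z-score above 1 or below -1; inactive means the rest.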 This is one part of the list.

Assay: Novel Modifiers of Survival Motor Neuron (SMN) Protein: Gene Identification via Genome-wide siRNA Screen;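 further: luminescence tracks full-length SMN protein made from the SMN2 reporter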
Conditions: HEK293T SMN2-luciferase reporter, siRNA knockdown, 72 h; actives lie on both sides
Summary of the method: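 Genome-wide siRNA screen (10418 genes, 3 siRNAs each, 1 pmol per well) by reverse transfection in HEK293T cells stably carrying an SMN2-luciferase reporter; luminescence after 72 hours, normalized to negative-control siRNA, log10-transformed, MAD-scored.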

Row | Sequence | median seed-adjusted z-score
1 | AGUACAGCCUGGUCAAGAATT against S100A16 | inactive: 0.24
2 | CCAUUGGACCAACACUAUATT against PARP2 | inactive: -0.366
3 | AGUUCUCCGUAUUCGAGCATT against SLC25A41 | inactive: 0.0703
4 | GGACCUUUGAGGUUGAGGATT against TLL2 | inactive: 0.195
5 | GCUUCAUCUUUGGAUAUCATT against RNF160 | inactive: -0.163
6 | GCAUAGAAGGCUUCACGAATT against PLCH1 | inactive: -0.00634
7 | CAGUAAGAAUUGAUCGUUUTT against YOD1 | inactive: 0.216
8 | CCCUAGUGUUCAUCAAGUATT against PSEN2 | inactive: -0.147
9 | CGAGCUAUGUGAAUGCAAUTT against HSPG2 | inactive: 0.478
10 | CGCUGAUGACCGGGCUUUATT against SLC26A1 | inactive: 0.377
11 | GACGACUUCUUGAACAGAATT against ZNF207 | active: -3.1
12 | GAUUGAAUCAAAUGCUGAATT against HTRA4 | inactive: 0.838
13 | CCGUCACUGAAGUCAAUAATT against CACNA1F | inactive: 0.22
14 | CGACAUAUCUUGUUAACUUTT against HMGN4 | inactive: -0.0471
15 | GCAUUGUGAAUAUAAUGAATT against ZNF569 | inactive: 0.425
16 | GCAGAUAAUUGGGAACUGUTT against LMBR1L | inactive: 0.349
17 | GUUUCAACAUGACAGCUAATT against LIPG | inactive: -0.00236
18 | ACAACCUACUUAUCCAUGATT against OSR1 | inactive: -0.185
19 | GGAGUAAGAGUGGACUGAATT against PIAS4 | inactive: 0.265
20 | CGAGAAGAGGAUUAAAGGATT against HAND1 | inactive: 0.161
21 | CCAGGUGCAUGUUUGCCUATT against POLG | inactive: 0
22 | GAAUUACGGAGGAAUCAUUTT against TCEB3B | inactive: 0.0434

Row | Sequence | median seed-adjusted z-score
23 | GGCUACUAUUAUCUCAAUATT against TPCN1 | inactive: 0.139
24 | CACUCUCAAUGGGACUGUATT against NR3C1 | inactive: -0.47
25 | GCAUCGGCCUGAAAGCAGUTT against ZSCAN2 | inactive: -0.428
26 | GGACGGAUACAUAAACAAATT against KCNIP1 | inactive: -0.0767
27 | GGACAAUCUUUACCUCCUATT against VSX2 | inactive: -0.333
28 | GGAACAACCUAGAAGCUUUTT against VRK3 | inactive: -0.526
29 | CAUUGUUUCGAGAACGUGATT against GNA15 | inactive: 0.582
30 | CCCAAGAAAUAUUAACAUUTT against AP3S1 | inactive: 0.787
31 | GGAUGAAGCCGACCGAAUATT against DDX47 | inactive: -0.398
32 | CCUGGAAACUUGACGGAGATT against SHARPIN | inactive: -0.00778
33 | CAAGCGAACUCCUCAGUUATT against 14-Sep | inactive: 0.227
34 | CCUUUGUAGUUAAUCAGGATT against ZNF577 | inactive: -0.756
35 | CAUUCAUACAAAACCCAAUTT against NLGN4Y | inactive: 0.317
36 | GCAAUAUCCUUUGACAACUTT against GABRB3 | inactive: 0.0757
37 | CACUUACUCAAGACAAGAATT against ZNF429 | inactive: 0.479
38 | GAAGUAUGAUUAUCGGGAATT against EXT1 | inactive: 0.489
39 | GCAUUGCCUCUAUACCAGATT against MALT1 | inactive: 0.442
40 | CAAUAGCCCUGAAGACUAUTT against EPAS1 | inactive: -0.166
41 | GGAGUUAUGCCUAUCCAAATT against GABRA4 | inactive: 0.549
42 | GGAUGGUAGUGAUAGCCCATT against FOXJ3 | inactive: -0.155
43 | GCUCUGCCCUGUUUGAGAATT against KTI12 | inactive: 0.0814
44 | CAACUUGUAAGAAACGGUUTT against PRDM10 | inactive: 0.344

A different layout for some results above.
Row	Sequence	median seed-adjusted z-score
31	GGAUGAAGCCGACCGAAUATT against DDX47	inactive: -0.398
34	CCUUUGUAGUUAAUCAGGATT against ZNF577	inactive: -0.756

(list continues)

Row | Sequence | median seed-adjusted z-score
45 | CAAAUCCUGUCUAACAAAATT against MYH7 | inactive: 0.659
46 | GCUUAUAUGGUGUACAUUUTT against ELOVL6 | inactive: 0.742
47 | GACCUACUGGAGACUAAUATT against TGS1 | inactive: -0.564
48 | GCACUCUCCCAGUAUCUAUTT against KLRD1 | inactive: 0.876
49 | CACUGAAGCUGUACAACAATT against TSHR | inactive: 0.851
50 | GGAAAAGAUUUACCUAUAATT against ETV3 | inactive: -0.039
51 | CAACCUCAGUCUCAGUAAATT against GABRA5 | inactive: 0
52 | GGUAAGGAAAGAUAGCUCATT against PHF16 | inactive: 0
53 | UCGUGUUUCUAUUCUGAUATT against HOXA6 | inactive: -0.282
54 | GGUCAUAGGUUUUGGAUCUTT against HIATL1 | inactive: 0.327
55 | GGAUACUCUGAUGAAGAUATT against GNAQ | active: -1.23
56 | GAAGUUCUCUUUACAACCATT against RFX2 | inactive: 0.271
57 | GCAGCGACCUUUCAGAACATT against SALL1 | inactive: -0.526
58 | GAAGGAUUCUGGUCUGAAATT against ACSL1 | inactive: 0.264
59 | CAAGGUAUCAUUAACCCAATT against TFIP11 | inactive: -0.0562
60 | CGUUGAUUAUGCAAGGCAATT against GIT2 | inactive: 0.338
61 | GUGCGUUUCUCAUACCGUATT against SLC6A6 | inactive: 0.0448
62 | GCAUCAUACUCUUCCUGUUTT against ALOX5AP | inactive: -0.0169
63 | GAACAGUCCCUGGUUCCCATT against ECSIT | inactive: -0.116
64 | CUAUUGUUAAGACAGAUUATT against AGK | inactive: -0.312
65 | GCCUUUAACGGACUUGCAATT against ZNF536 | inactive: -0.295
66 | GGUCAAUUCUUCUUGGACATT against ALG11 | inactive: 0.183

Retrieved one by one from the entries so far (four):
Row | Sequence | median seed-adjusted z-score
52 | GGUAAGGAAAGAUAGCUCATT against PHF16 | inactive: 0
61 | GUGCGUUUCUCAUACCGUATT against SLC6A6 | inactive: 0.0448
24 | CACUCUCAAUGGGACUGUATT against NR3C1 | inactive: -0.47
65 | GCCUUUAACGGACUUGCAATT against ZNF536 | inactive: -0.295

(listing goes on)

Row | Sequence | median seed-adjusted z-score
67 | AGGUGACCAAGUUCGCCGATT against ARL4C | inactive: -0.61
68 | GGAUUAACGAGAAUGAGAATT against FZR1 | inactive: 0.729
69 | CCAUCCCUACAAUAGGUUUTT against ARL14 | inactive: 0.417
70 | GGAACCGAGAAGCUACUAATT against DDX3X | inactive: 0.0136
71 | GUAUCAUUUUCACUCUCGATT against PHKA2 | inactive: 0.304
72 | CAGUUGCAUUGGUUCCCAUTT against EZH1 | inactive: 0.268
73 | GAGCUUCGCAAAAAUGUCATT against PKP3 | inactive: 0.205
74 | AUUGCCUCCUUGAGCCUUATT against KCTD17 | inactive: 0.492
75 | GGAUGAACUUGGGAUGUUUTT against RNF135 | inactive: 0.581
76 | CCACCUAUUUGCACAAGGATT against POMT2 | inactive: -0.614
77 | GGUCAGUCUUGAUUCUCGATT against RGS17 | inactive: -0.627
78 | AGCUGGUCGUAGCUAAGAATT against SFTPD | inactive: 0.289
79 | GAUUUUAACUCUACUGCAATT against TSN | inactive: 0.572
80 | GAACAAAAUCGGGAUCGAATT against TK2 | inactive: 0
81 | GGGUCAUGCAGCAUCAAUATT against ITGAM | active: -1.56
82 | GCUGUGAACUGACUCUGCATT against UROD | active: 1.11
83 | AGUAGUGAUUUGUAAACUUTT against DUSP22 | inactive: 0
84 | GGACAUGUCCACACGCGAATT against PITX2 | inactive: -0.231
85 | GAAGCUCUCCAGACCAUUUTT against MAPK14 | inactive: 0.142
86 | CGUAUACUUCCACAAGUAATT against HRB | inactive: 0.921
87 | CAACUACAGUAGAUCGAGATT against UBR2 | inactive: 0.632
88 | GGUUCACAUUCAGACCAUATT against GOLGA2 | inactive: 0.18

Row | Sequence | median seed-adjusted z-score
89 | GGAAUACAUAUGUUGGAAATT against UPP2 | inactive: 0.586
90 | GUAUGAUCGUGUAUACUGUTT against PCMTD2 | inactive: -0.0765
91 | AGCGCAUGAUUGACAGUGATT against CACNG1 | inactive: -0.452
92 | GGAAGGAAAGGACAUAGAATT against CLEC4C | inactive: 0.664
93 | CCAUCUCCCAGGUCUCUAATT against PBX4 | inactive: -0.855
94 | CCACCUUUGCAACGCGGAATT against TPSD1 | inactive: 0.0848
95 | GGAUAUUACAGCUAUUUGATT against USP10 | inactive: 0.182
96 | GGCCGAGACUUCUCCUUCATT against GRIN2C | inactive: -0.3
97 | GCAGUACAUGGAACGGCUATT against MTX1 | inactive: -0.159
98 | ACUCGUUCUUUGUCACAAATT against MYBBP1A | inactive: 0.572
99 | GGCUGUACUAUUAAUGACATT against COQ2 | inactive: -0.0121
100 | CAAGGAGUCAGACAUUUUATT against CDKN1A | inactive: 0.158
101 | GGAUCGUCAUAACAGAAUUTT against RPE65 | inactive: -0.655
102 | GGCUUGAUAUUUGACAGAATT against BBOX1 | inactive: 0.152
103 | GGAUGACUCGGGACGUGUATT against INSRR | inactive: 0.13
104 | GGAAGAGUCAUACAUCAAUTT against DDX55 | inactive: 0.507
105 | GACUUGUCAGAAGUACAUATT against RNF125 | inactive: 0.204
106 | CCCGAAAACUUACACCAUATT against FARSB | inactive: 0.317
107 | GAAUGUGCCGAGACAACUATT against SORCS3 | inactive: -0.151
108 | GAUACUAUUUCAUGGAGAATT against DNAJA4 | inactive: 0.145
